In publication PMC7819943, “Rice protein-binding microarrays: a tool to detect cis-acting elements near promoter regions in rice” one finds binding signal data, which are given here for 42 sequences.

Chains of the proteins cited; added tags and fusions are not shown.
UniProt Q0JBA9, entry or part of it: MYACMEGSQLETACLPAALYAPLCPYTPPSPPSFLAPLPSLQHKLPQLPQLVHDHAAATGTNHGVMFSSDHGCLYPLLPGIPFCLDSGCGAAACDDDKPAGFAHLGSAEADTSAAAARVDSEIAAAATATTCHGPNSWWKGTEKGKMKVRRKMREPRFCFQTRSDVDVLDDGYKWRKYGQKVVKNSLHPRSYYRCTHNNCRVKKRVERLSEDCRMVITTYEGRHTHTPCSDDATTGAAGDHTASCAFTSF

The other results are listed elsewhere or left out.

The target of this assay is OsWRKY34 (Oryza sativa, UniProt Q0JBA9 1-250). Put plainly: protein-binding microarray (RPBM); PBS, 2% BSA, 51.3 ng/ul salmon testes DNA, 50 uM zinc acetate, 200 nM TF, 25 C, 1 h; high values mean tight binding. Conditions: protein: recombinant; tags: N-terminal polyhistidine and DsRed monomer fusion (pET32a); label: CyDye5-dUTP incorporated in the synthesized complementary strand; 3' TTTTT single-stranded linker to array surface; dsDNA, one strand shown. The essentials: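 Binding signal here means per-feature fluorescence intensity in arbitrary units. The values were read on an Axon 4000B scanner after a custom Agilent array, double-stranded by primer extension with Cy5-dUTP, was incubated with 200 nM protein at 25 °C for 1 h in PBS with 2% BSA, salmon testes DNA and 50 µM zinc acetate, then washed. The proteins were transcription factors with an N-terminal polyhistidine tag and DsRed, expressed in E. coli BL21-CodonPlus and purified on Ni–NTA.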
In the case of “AACTAGAATCCTATCTACCTCACGTTTTCTCCAGCTGTCCCGGAGTCACCTAGTGCAG”, the binding signal was 8620 fluorescence intensity (a.u.).
The result for “AACTACATTTGGGCCAGCTCTTCTTCCTTTGATTTGAAAACGGAGTCACCTAGTGCAG” reads 8150 fluorescence intensity (a.u.); that for “GTGGTAGTGGTGGCTCAATGACGAGGAGGGGCGGCGAGAGCGGAGTCACCTAGTGCAG”, 9160 fluorescence intensity (a.u.); that for “CCAACAGTGCTGTTGTCGCCACGCTCTTTGTGTTGCTGCCCGGAGTCACCTAGTGCAG”, 8380 fluorescence intensity (a.u.).
As for “AAAAATTCTGACGCCTATACTTGCATTTTTGACTGTTTGCCGGAGTCACCTAGTGCAG”, the binding signal is 11000 fluorescence intensity (a.u.).
With “TAATTTGCGATTTCGGGCTAGGGTTTCTTTCCAACTTTTTCGGAGTCACCTAGTGCAG”, the binding signal is 10000 fluorescence intensity (a.u.).
For the sequence “ATCCCGCTCCTCGTCTCCTCTCCGAAGTCTCCTCTTGTCACGGAGTCACCTAGTGCAG”, the binding signal is 10200 fluorescence intensity (a.u.).
On to “TTCATCGTGTTCGTCATTTTTCCTTTTTCTTCCTCCTCTCCGGAGTCACCTAGTGCAG”, for which the binding signal is 8570 fluorescence intensity (a.u.).
As for “ATTCTTTCTTTTTGGCCTCCTCTCCTCTTGTCTCGCTCTTCGGAGTCACCTAGTGCAG”, the figure is 10700 fluorescence intensity (a.u.); as for “GCACCCACAGTTCCATGAGACACATAGAAGTTTTACACAACGGAGTCACCTAGTGCAG”, 10600 fluorescence intensity (a.u.); as for “ACCAAGCCCTAGTCCCCGCCACGCCACCGTCCGCCGGCCGCGGAGTCACCTAGTGCAG”, 9930 fluorescence intensity (a.u.).
As for “GCTATGCACCACACTCTTCGGCTTGCGTCAATATTCTACACGGAGTCACCTAGTGCAG”, the figure is 8270 fluorescence intensity (a.u.); as for “AATCTGACTGAAGTATGTACTTTGTGTTGACCAATTTGGCCGGAGTCACCTAGTGCAG”, 10200 fluorescence intensity (a.u.).
The result for “TGTCTTTATTTTGTGAGAGTACTCCAACCCACTCTAATTCCGGAGTCACCTAGTGCAG” reads 9330 fluorescence intensity (a.u.); that for “ATGCATCTTTACCCCTTTTGCACCCATGCATTGCTTGTGACGGAGTCACCTAGTGCAG”, 9660 fluorescence intensity (a.u.); that for “CAGCTTTCATCACCACAGCACTACTACTTGCATGACTCAACGGAGTCACCTAGTGCAG”, 13800 fluorescence intensity (a.u.).
Take “GAATTGCTTCTTTTTCTTCCATCCTCCTTCAGGTATCATTCGGAGTCACCTAGTGCAG”: the binding signal was 9350 fluorescence intensity (a.u.).
As to “CTTCTTGTTGCCTCTTGCCTCCTTCTTCTTCTTCTTCGTCCGGAGTCACCTAGTGCAG”, the binding signal is 8600 fluorescence intensity (a.u.).
For the sequence “TATCCGTTCGCGTCCCCGCCCTCGCTTCGCCGCGGCAATGCGGAGTCACCTAGTGCAG”, the binding signal is 9720 fluorescence intensity (a.u.).
As for “ACCTGCGAGTTATTCAGCTCATTTTTCCTGCCAAACATTACGGAGTCACCTAGTGCAG”, the binding signal is 8440 fluorescence intensity (a.u.).
Take “CTCGCTCACTCGGTCAGCTGCACACACACTGCACTTCGGCCGGAGTCACCTAGTGCAG”: the binding signal was 9820 fluorescence intensity (a.u.).
“GCACGGAGCCACGGACGGGCTCCCTACTTTTCTCGAGTTTCGGAGTCACCTAGTGCAG”: the binding signal was 8740 fluorescence intensity (a.u.).
For the sequence “TGTTCTGGATGCTGTGTTGTTAAGGTACAACTTTTTCTTACGGAGTCACCTAGTGCAG”, the binding signal is 9190 fluorescence intensity (a.u.).
On to “AACTGCTTGCGCATCCGTATCAAACAGCTTCTTTTCATCACGGAGTCACCTAGTGCAG”, for which the binding signal was 8970 fluorescence intensity (a.u.).
Take “CTCCCGCATGCCCTTGATTTTCCACAACTGATTTTATTCCCGGAGTCACCTAGTGCAG”: the binding signal is 11700 fluorescence intensity (a.u.).
For the sequence “CCCCTGTCCGTCGCCGCCACCGCCGCCGCCGCCGGCGGCGCGGAGTCACCTAGTGCAG”, the binding signal is 9120 fluorescence intensity (a.u.).
On to “GCCTATTTTGTTGTTGTCCTGCACGATTTGAAAACGTTAGCGGAGTCACCTAGTGCAG”, for which the binding signal is 8192 fluorescence intensity (a.u.).
As for “TGAAATTTCTACTGTCATGCTTCCTTGTCCCATTACAACACGGAGTCACCTAGTGCAG”, the figure is 8610 fluorescence intensity (a.u.); as for “AATTTCTGTTTTATTTCCTTTCTCTCGTCACCAAATTTACCGGAGTCACCTAGTGCAG”, 9050 fluorescence intensity (a.u.).
For the sequence “GGTCTGACATGTGGGCCCCACATGTCAGTGGGCCCATATTCGGAGTCACCTAGTGCAG”, the binding signal was 9000 fluorescence intensity (a.u.).
In the case of “AGAAGTTAGTAGTGGAGGGTTGTGGTTGAATGAGTAGTAGCGGAGTCACCTAGTGCAG”, the binding signal was 8550 fluorescence intensity (a.u.).
The result for “GGCGTTCCTGCCCAACCCAGCCCTGTTGCCATCCCTACGACGGAGTCACCTAGTGCAG” reads 8120 fluorescence intensity (a.u.); that for “CATTTTTTTTATTGTGTTACCATACAGTTTTGCTTTCTCGCGGAGTCACCTAGTGCAG”, 10400 fluorescence intensity (a.u.); that for “GCCGACCCATCACCGTCGTTGCCGCCATTTTCCATTATCGCGGAGTCACCTAGTGCAG”, 8800 fluorescence intensity (a.u.).
Turning to “TCCGGTTGTTTGCCGTGGCACTTCCTTTCTCCCTATTGGCCGGAGTCACCTAGTGCAG”, the binding signal was 8260 fluorescence intensity (a.u.).
Turning to “AAACCTGTGGATGGCGGGGCGGTCGTGCGGCGGGAGGAGGCGGAGTCACCTAGTGCAG”, the binding signal is 8600 fluorescence intensity (a.u.).
For the sequence “CAAGTACCCAACCCGCGTCGTCATCGTCGTCTTCCTACTTCGGAGTCACCTAGTGCAG”, the binding signal is 8430 fluorescence intensity (a.u.).
The result for “GGTAGCATACCAAAGTCCATAACTCTCTAGCTAATTAATCCGGAGTCACCTAGTGCAG” reads 8320 fluorescence intensity (a.u.); that for “AATACTTAATTAATCATACGTTAATGGCTCATCTCGTTTTCGGAGTCACCTAGTGCAG”, 9320 fluorescence intensity (a.u.).
In the case of “CCCCGTGTCCGACGTTTGACCGTTCGTTTTATTTAAAAAACGGAGTCACCTAGTGCAG”, the binding signal was 8440 fluorescence intensity (a.u.).
With “ATAGTTAATATGTCTATCCCGTTACAACGGGATCCTGTTTCGGAGTCACCTAGTGCAG”, the binding signal was 8440 fluorescence intensity (a.u.).
As for “TACTCATGCTGTGTTTTTCCCCTTTGCTACCTCACAGTTCCGGAGTCACCTAGTGCAG”, the binding signal is 13600 fluorescence intensity (a.u.).
